Results on 26 molecules are retold here after PubChem BioAssay AID248 (DTP/NCI, 2004).

Molecules are shown by their SMILES. The list is a part of this screen's results and no random one: it gathers tests that were run many times, whatever their T/C, doses with no T/C, and many T/C values between a quarter and a half above the control. Other doses and runs of a compound stand elsewhere. T/C: endpoint of the treated group in % of that of the vehicle group. Some doses have a count of surviving animals in place of a T/C: the source holds a T/C of zero for them, seemingly a mark for toxic or unscored doses. Some doses without a T/C left all or most animals alive at the check, yet need not have been tolerated: the source hardly ever lists a survival T/C far under the control, and the zero likely stands for such cases as well. Survivors were counted at the toxicity check, usually on the fifth day, unless a day is given; later deaths do not show. Schedule codes are those of the source, taken here to give the interval after Q, in days (D) or hours (H), and the number of doses after X. Some entries hold several experiments; the values are given in rising order. For survival time, the PubChem record calls one and a half times the control and up active, and a quarter to a half above the control has no call in these data; cut-offs in other NCI protocols can differ. Signs of the kind (2×) give the number of equal values in this list. Some T/C values carry the count of animals alive at the toxicity check (mostly the fifth day); where none is given, no animal had died by that day.

The subject of this assay is L1210 leukemia ip in BDF1 mice, survival T/C. In words: NCI In Vivo Anticancer Drug Screen. Data for tumor model L1210 Leukemia (intraperitoneal) in B6D2F1 (BDF1) mice. Conditions: T/C endpoint: mean survival time, higher T/C = longer survival.
[1] abbreviates: dose: 200.0 mg/kg/injection, schedule: Q04DX003 (ip), vehicle: Klucel (hydroxypropylcellulose) (HPC).
[2] abbreviates: dose: 400.0 mg/kg/injection, schedule: Q04DX003 (ip), vehicle: Klucel (hydroxypropylcellulose) (HPC).
The mark [3] stands for this setting: dose: 200.0 mg/kg/injection, schedule: Q01DX009 (ip), vehicle: Klucel (hydroxypropylcellulose) (HPC).
Setting [4] is: dose: 400.0 mg/kg/injection, schedule: Q04DX003 (ip), vehicle: saline.
[5] abbreviates: dose: 200.0 mg/kg/injection, schedule: Q04DX003 (ip), vehicle: saline.
The mark [6] stands for this setting: dose: 400.0 mg/kg/injection, schedule: Q01DX009 (ip), vehicle: Klucel (hydroxypropylcellulose) (HPC).
The mark [7] stands for this setting: dose: 400.0 mg/kg/injection, schedule: Q01DX001 (ip), vehicle: other.
[8] abbreviates: dose: 400.0 mg/kg/injection, schedule: Q01DX009 (ip), vehicle: saline.
Where [9] appears, read: dose: 6.25 mg/kg/injection, schedule: Q01DX009 (ip), vehicle: other.
Where [10] appears, read: dose: 200.0 mg/kg/injection, schedule: Q01DX009 (ip), vehicle: saline with Tween-80.

As to `COC(=O)C1(C)CCCC2c3cc4c(cc3CCC21)C(=O)CC(C)O4` (stereo unspecified), the survivor count is, setting by setting: (dose: 100.0 mg/kg/injection, schedule: Q01DX001 (ip), vehicle: carboxymethylcellulose (CMC)) 4 of 4; (dose: 200.0 mg/kg/injection, schedule: Q01DX001 (ip), vehicle: carboxymethylcellulose (CMC)) 4 of 4.
Turning to `NNS(=O)(=O)Cc1ccccc1`, under “dose: 400.0 mg/kg/injection, schedule: Q01DX001 (ip), vehicle: saline”, the survivor count is on record as 3 of 6.
Regarding `CN(Cc1cnc2nc(N)nc(N)c2n1)c1ccc(C(=O)NC(CCC(=O)OC(C)(C)C)C(=O)OC(C)(C)C)cc1` (stereo unspecified), the T/C reads like this: (dose: 12.5 mg/kg/injection, schedule: Q01DX009 (ip), vehicle: Klucel (hydroxypropylcellulose) (HPC)) 135 % of control; under setting [1], 145 % of control. Besides, the survivor count was 6 of 6 (dose: 100.0 mg/kg/injection, schedule: Q01DX009 (ip), vehicle: Klucel (hydroxypropylcellulose) (HPC)) and 3 of 3 under setting [2].
With `CCN(CC)CCN(CCO)Cc1ccccc1`, the survivor count under setting [3] is 0 of 6, the survivor count under setting [1] was 0 of 6 and the survivor count under setting [2] is 0 of 6.
As for `OC(CNc1ccc(Cl)cc1)CN1CCOCC1` (stereo unspecified), the survivor count under setting [4] is reported as 4 of 6.
As for `S=C(Nc1ccc(Cl)cc1)NC1CC2C=CC1C2` (stereo unspecified), for the setting “dose: 400.0 mg/kg/injection, schedule: Q04DX002 (ip), vehicle: saline with Tween-80”, the survivor count was 1 of 3.
Consider `C[N+](C)(C)CCO`, for which the T/C runs as follows: (dose: 50.0 mg/kg/injection, schedule: Q04DX003 (ip), vehicle: water, evaluated on day 5) 99 and 101 % of control (2×); (dose: 50.0 mg/kg/injection, schedule: Q04DX003 (ip), vehicle: water, evaluated on day 60) 100 and 105 % of control; (dose: 100.0 mg/kg/injection, schedule: Q04DX003 (ip), vehicle: water, evaluated on day 5) 99 and 101 % of control (2×); (dose: 100.0 mg/kg/injection, schedule: Q04DX003 (ip), vehicle: water, evaluated on day 60) 98 and 102 % of control; (dose: 200.0 mg/kg/injection, schedule: Q04DX003 (ip), vehicle: water, evaluated on day 5) 102 and 103 % of control (2×); (dose: 200.0 mg/kg/injection, schedule: Q04DX003 (ip), vehicle: water, evaluated on day 60) 96 [9 of 10 alive] and 100 % of control.
Turning to `O=[N+]([O-])c1cccc(S(=O)(=O)SC(Cl)(Cl)Cl)c1`, the survivor count by setting is: (dose: 50.0 mg/kg/injection, schedule: Q04DX003 (ip), vehicle: saline) 3 of 3; (dose: 100.0 mg/kg/injection, schedule: Q04DX003 (ip), vehicle: saline) 0 of 3 and 1 of 3; under setting [5], 0 of 3; under setting [4], 0 of 3.
As for `COc1ccc(OC)c(NC(=O)c2c(Br)c(Br)c(Br)c(Br)c2C(=O)O)c1`, the survivor count under setting [6] is recorded as 1 of 6.
For the molecule `Cc1cccc(NC(=O)CCl)c1C`, the survivor count is, setting by setting: under setting [6], 0 of 6; under setting [2], 4 of 6.
`Cc1sc([N+](=O)[O-])cc1[N+](=O)[O-]`: the survivor count under setting [3] is recorded as 2 of 6 and the survivor count under setting [2] is 1 of 6.
Take `COC(=O)c1nc(Cl)nc(I)c1Cl`: the survivor count (dose: 50.0 mg/kg/injection, schedule: Q01DX001 (ip), vehicle: other) is given as 1 of 6; the survivor count (dose: 100.0 mg/kg/injection, schedule: Q01DX001 (ip), vehicle: other) is given as 0 of 6; the survivor count (dose: 200.0 mg/kg/injection, schedule: Q01DX001 (ip), vehicle: other) is listed as 0 of 6; the survivor count under setting [7] is 0 of 6.
Turning to `O=C(Nc1ccc(C(=O)O)cc1)Nc1cccc(Cl)c1`, the survivor count runs as follows: (dose: 200.0 mg/kg/injection, schedule: Q04DX002 (ip), vehicle: saline) 1 of 3; (dose: 400.0 mg/kg/injection, schedule: Q04DX002 (ip), vehicle: saline) 0 of 3.
In the case of `CN(C)C(C)(C)CO`, the survivor count under setting [8] is given as 2 of 6.
With `CCCCCCCCCCCCCCCCCC[Se][Se]CCCCCCCCCCCCCCCCCC`, the survivor count is listed as 6 of 6 (dose: 50.0 mg/kg/injection, schedule: Q01DX009 (ip), vehicle: saline with Tween-80); 6 of 6 (dose: 100.0 mg/kg/injection, schedule: Q01DX009 (ip), vehicle: saline with Tween-80); 6 of 6 (dose: 200.0 mg/kg/injection, schedule: Q04DX003 (ip), vehicle: saline with Tween-80).
On to `C#CC(C)(O)c1ccccc1` (stereo unspecified), for which the survivor count under setting [6] is 3 of 6.
Take `Cc1ccccc1N=P(c1ccccc1)(c1ccccc1)c1ccccc1`: under “dose: 400.0 mg/kg/injection, schedule: Q01DX009 (ip), vehicle: gum acacia”, the survivor count is 1 of 6.
In the case of `CCc1ccccc1NC(=O)N1CCN(C)CC1`, under setting [8], the survivor count is recorded as 0 of 6.
Take `CCCC(C)OP(=O)(OCC)OCC` (stereo unspecified): under setting [6], the survivor count is 0 of 6.
Turning to `CCC[CH2][Sn](=[S])[CH2]CCC`, the T/C was 138 % of control (dose: 1.56 mg/kg/injection, schedule: Q01DX009 (ip), vehicle: other) and 131 % of control under setting [9]. Besides, the survivor count reads like this: under setting [9], 6 of 6; (dose: 12.5 mg/kg/injection, schedule: Q04DX003 (ip), vehicle: other) 6 of 6; (dose: 25.0 mg/kg/injection, schedule: Q01DX009 (ip), vehicle: other) 6 of 6; (dose: 25.0 mg/kg/injection, schedule: Q04DX003 (ip), vehicle: other) 6 of 6; (dose: 50.0 mg/kg/injection, schedule: Q01DX009 (ip), vehicle: other) 6 of 6; (dose: 50.0 mg/kg/injection, schedule: Q04DX003 (ip), vehicle: other) 3 of 6 and 6 of 6.
In the case of `O=C(CCl)Oc1ccccc1`, the survivor count by setting is: under setting [10], 0 of 6; (dose: 400.0 mg/kg/injection, schedule: Q04DX003 (ip), vehicle: saline with Tween-80) 0 of 6.
For the molecule `O=C(COc1ccc(Cl)c(Cl)c1)NCCc1cc[n+](Cc2ccc(Cl)c(S(=O)(=O)F)c2)cc1`, the survivor count (dose: 400.0 mg/kg/injection, schedule: Q01DX001 (ip), vehicle: Klucel (hydroxypropylcellulose) (HPC)) is recorded as 1 of 6.
For the molecule `C=CCCCCCCCCC(=O)N(C)OC`, the survivor count is on record as 6 of 6 under setting [10] and 1 of 6 (dose: 400.0 mg/kg/injection, schedule: Q01DX009 (ip), vehicle: saline with Tween-80).
As to `O=NN(CCCl)C(=O)NC(=O)NCCCl`, the T/C (dose: 4.5 mg/kg/injection, schedule: Q01DX001 (ip), vehicle: carboxymethylcellulose (CMC)) is 136 % of control; the T/C (dose: 6.0 mg/kg/injection, schedule: Q01DX001 (ip), vehicle: carboxymethylcellulose (CMC)) is 126 % of control; the T/C (dose: 9.0 mg/kg/injection, schedule: Q01DX001 (ip), vehicle: carboxymethylcellulose (CMC)) is 147 % of control; the T/C (dose: 26.0 mg/kg/injection, schedule: Q01DX001 (ip), vehicle: carboxymethylcellulose (CMC)) is 125 % of control. Moreover, the survivor count by setting is: (dose: 40.0 mg/kg/injection, schedule: Q01DX001 (ip), vehicle: carboxymethylcellulose (CMC)) 6 of 6; (dose: 60.0 mg/kg/injection, schedule: Q01DX001 (ip), vehicle: carboxymethylcellulose (CMC)) 3 of 6; (dose: 93.0 mg/kg/injection, schedule: Q01DX001 (ip), vehicle: carboxymethylcellulose (CMC)) 0 of 6; (dose: 187.0 mg/kg/injection, schedule: Q01DX001 (ip), vehicle: carboxymethylcellulose (CMC)) 0 of 6; (dose: 375.0 mg/kg/injection, schedule: Q01DX001 (ip), vehicle: carboxymethylcellulose (CMC)) 0 of 6.
In the case of `Clc1ccccc1OCCNC1CC1`, the survivor count is given as 2 of 4 under setting [5] and 1 of 4 under setting [4].
In the case of `Oc1ccccc1C=Nc1ccccc1O.[Cu+2]`, under setting [7], the survivor count is on record as 0 of 6.
